# Earlier results, collected in patent US20070099268A1, “Chimeric HCN channels” (priority 2005, published 2007).
# At least one structure is not confirmed: it was looked up by name or label, or the drawing left a doubt.
# Tested on: hMSCs loaded with HCN2
# Conditions: cited from earlier work
structure (smiles),measurement,value
"CC(=O)OCC[N+](C)(C)C [Acetylcholine, acetylcholine]",effect on expressed current,no effect on current
